Measurements reported in PubChem BioAssay AID1508597 (Cure First, 2020).
Here is a random part of about 2,100 reagents. 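Calls flag viability under 80% in either arm, not effects specific to rucaparib; the reference for percent is not stated.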 Some reagents were tested in more than one well and are listed for each. Reagent sequences are not shown. Not stated in the record: the 100% reference.

- Screen: 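Genes whose silencing sensitises or protects ovarian cancer cells against rucaparib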 (primary screen)
- System: human ovarian carcinoma lines grown from tumours: OCI-P5x (papillary serous) and OCI-C5x (clear cell)
- Reagents: siRNA pool against human genes, 1.25 pmol siRNA per well
- Time to read-out: 72 h or 96 h, depending on the cell culture
- Treatment: rucaparib 20 µM (about IC30) or vehicle, present until read-out
- Measurement: 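Luminescent ATP-based viability assay read 72 or 96 h after transfection, depending on culture, given as normalised percent viability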
- Scale: viability, normalised: higher = more viable cells remaining
- Active means: 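a well counts as a hit if its normalised viability is under 80 percent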
- Meaning of the calls: active = viability under 80%; inactive = viability 80% or more

Gene | rucaparib or vehicle | cell line | technical replicate | viability, normalised (%) | Outcome
PFKFB3 | Rucaparib | OCI-C5x (clear cell) | 1 | 35.4 | active
PFKFB3 | Rucaparib | OCI-C5x (clear cell) | 2 | 34.6 | active
PFKFB3 | Rucaparib | OCI-C5x (clear cell) | 3 | 33.2 | active
PFKFB3 | Rucaparib | OCI-P5x (serous) | 1 | 68.2 | active
PFKFB3 | Rucaparib | OCI-P5x (serous) | 2 | 54.2 | active
PFKFB3 | Rucaparib | OCI-P5x (serous) | 3 | 50 | active
PFKFB3 | Vehicle | OCI-C5x (clear cell) | 1 | 36.6 | active
PFKFB3 | Vehicle | OCI-C5x (clear cell) | 2 | 35.2 | active
PFKFB3 | Vehicle | OCI-C5x (clear cell) | 3 | 31 | active
PFKFB3 | Vehicle | OCI-P5x (serous) | 1 | 59.4 | active
PFKFB3 | Vehicle | OCI-P5x (serous) | 2 | 49 | active
PFKFB3 | Vehicle | OCI-P5x (serous) | 3 | 52.9 | active
PIWIL2 | Rucaparib | OCI-C5x (clear cell) | 1 | 70 | active
PIWIL2 | Rucaparib | OCI-C5x (clear cell) | 2 | 49.1 | active
PIWIL2 | Rucaparib | OCI-C5x (clear cell) | 3 | 52 | active
PIWIL2 | Rucaparib | OCI-P5x (serous) | 1 | 52.4 | active
PIWIL2 | Rucaparib | OCI-P5x (serous) | 2 | 58.5 | active
PIWIL2 | Rucaparib | OCI-P5x (serous) | 3 | 52.7 | active
PIWIL2 | Vehicle | OCI-C5x (clear cell) | 1 | 35.1 | active
PIWIL2 | Vehicle | OCI-C5x (clear cell) | 2 | 45.5 | active
PIWIL2 | Vehicle | OCI-C5x (clear cell) | 3 | 54.3 | active
PIWIL2 | Vehicle | OCI-P5x (serous) | 1 | 40.5 | active
PIWIL2 | Vehicle | OCI-P5x (serous) | 2 | 59.1 | active
PIWIL2 | Vehicle | OCI-P5x (serous) | 3 | 80 | inactive
CASP3 | Rucaparib | OCI-C5x (clear cell) | 1 | 61.5 | active
CASP3 | Rucaparib | OCI-C5x (clear cell) | 2 | 46 | active
CASP3 | Rucaparib | OCI-C5x (clear cell) | 3 | 30.8 | active
CASP3 | Rucaparib | OCI-P5x (serous) | 1 | 85.9 | inactive
CASP3 | Rucaparib | OCI-P5x (serous) | 2 | 96.2 | inactive
CASP3 | Rucaparib | OCI-P5x (serous) | 3 | 97.8 | inactive
CASP3 | Vehicle | OCI-C5x (clear cell) | 1 | 30.5 | active
CASP3 | Vehicle | OCI-C5x (clear cell) | 2 | 35.3 | active
CASP3 | Vehicle | OCI-C5x (clear cell) | 3 | 29.6 | active
CASP3 | Vehicle | OCI-P5x (serous) | 1 | 76.4 | active
CASP3 | Vehicle | OCI-P5x (serous) | 2 | 64.2 | active
CASP3 | Vehicle | OCI-P5x (serous) | 3 | 86.7 | inactive
KAT2B | Rucaparib | OCI-C5x (clear cell) | 1 | 58.3 | active
KAT2B | Rucaparib | OCI-C5x (clear cell) | 2 | 41.5 | active
KAT2B | Rucaparib | OCI-C5x (clear cell) | 3 | 46.3 | active
KAT2B | Rucaparib | OCI-P5x (serous) | 1 | 54.6 | active
KAT2B | Rucaparib | OCI-P5x (serous) | 2 | 68.9 | active
KAT2B | Rucaparib | OCI-P5x (serous) | 3 | 49.7 | active
KAT2B | Vehicle | OCI-C5x (clear cell) | 1 | 59.5 | active
KAT2B | Vehicle | OCI-C5x (clear cell) | 2 | 63 | active
KAT2B | Vehicle | OCI-C5x (clear cell) | 3 | 56.7 | active
KAT2B | Vehicle | OCI-P5x (serous) | 1 | 59.3 | active
KAT2B | Vehicle | OCI-P5x (serous) | 2 | 67.2 | active
KAT2B | Vehicle | OCI-P5x (serous) | 3 | 74.3 | active
FLT4 | Rucaparib | OCI-C5x (clear cell) | 1 | 74.3 | active
FLT4 | Rucaparib | OCI-C5x (clear cell) | 1 | 39.8 | active
FLT4 | Rucaparib | OCI-C5x (clear cell) | 2 | 61.9 | active
FLT4 | Rucaparib | OCI-C5x (clear cell) | 2 | 38.9 | active
FLT4 | Rucaparib | OCI-C5x (clear cell) | 3 | 88.3 | inactive
FLT4 | Rucaparib | OCI-C5x (clear cell) | 3 | 46.3 | active
FLT4 | Rucaparib | OCI-P5x (serous) | 1 | 57.8 | active
FLT4 | Rucaparib | OCI-P5x (serous) | 1 | 129 | inactive
FLT4 | Rucaparib | OCI-P5x (serous) | 2 | 119 | inactive
FLT4 | Rucaparib | OCI-P5x (serous) | 2 | 71.9 | active
FLT4 | Rucaparib | OCI-P5x (serous) | 3 | 121 | inactive
FLT4 | Rucaparib | OCI-P5x (serous) | 3 | 65.3 | active
FLT4 | Vehicle | OCI-C5x (clear cell) | 1 | 52.6 | active
FLT4 | Vehicle | OCI-C5x (clear cell) | 1 | 41.4 | active
FLT4 | Vehicle | OCI-C5x (clear cell) | 2 | 56.9 | active
FLT4 | Vehicle | OCI-C5x (clear cell) | 2 | 52.6 | active
FLT4 | Vehicle | OCI-C5x (clear cell) | 3 | 54.2 | active
FLT4 | Vehicle | OCI-C5x (clear cell) | 3 | 52 | active
FLT4 | Vehicle | OCI-P5x (serous) | 1 | 62.8 | active
FLT4 | Vehicle | OCI-P5x (serous) | 1 | 83.1 | inactive
FLT4 | Vehicle | OCI-P5x (serous) | 2 | 62.2 | active
FLT4 | Vehicle | OCI-P5x (serous) | 2 | 86.6 | inactive
FLT4 | Vehicle | OCI-P5x (serous) | 3 | 64.7 | active
FLT4 | Vehicle | OCI-P5x (serous) | 3 | 76.7 | active

Already shown: 5 of the entries above.
Gene | rucaparib or vehicle | cell line | technical replicate | viability, normalised (%) | Outcome
FLT4 | Rucaparib | OCI-C5x (clear cell) | 3 | 46.3 | active
FLT4 | Rucaparib | OCI-P5x (serous) | 1 | 57.8 | active
FLT4 | Rucaparib | OCI-P5x (serous) | 1 | 129 | inactive
FLT4 | Rucaparib | OCI-P5x (serous) | 2 | 119 | inactive
FLT4 | Rucaparib | OCI-P5x (serous) | 2 | 71.9 | active
